Measured values as given in PubChem BioAssay AID1347076 (National Center for Advancing Translational Sciences (NCATS), 2019).
About 13,000 (3.2%) of roughly 400,000 compounds were called active. The shares of active, inactive and inconclusive entries below differ from those in the screen. The call rests on the fitted dose curve; in most records, active means well fitted cell-killing curve with a large enough effect; inconclusive means small, poorly fitted or top-dose-only effect, or effect the other way; inactive means flat fitted curve, though single readings scatter. A potency beside an inconclusive call is a rough fit, not a confirmed value.

experiment: qHTS assay for MDR1-selective chemotherapeutics: Primary screen using the drug-selected MDR subline cells KB-V1; settings: KB-V1 MDR cells viability, CellTiter-Glo, 72 h; activity change, negative = cytotoxicity: at 46.1 µM (top of the series); further: nearly all actives have a fitted effect of over 60% in size
Procedure, shortened: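 Cytotoxicity via CellTiter-Glo luminescence after 72 h compound exposure at 37 degrees C. Cells: drug-selected KB-V1 line, DMEM phenol-red free plus 10% FBS. Compounds tested at multiple concentrations; normalized data fitted to concentration-effect curves.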
On the % scale 0 is the no-effect control and ±100 the full control effect; potency means the concentration at half of the fitted maximal effect.

| SMILES | Potency | activity change, negative = cytotoxicity |
| --- | --- | --- |
| CCC(=O)Nc1c2c(nn1-c1ccccc1)CSC2 | inconclusive: 0.0058 µM [cytotoxic, full curve, poor fit] | – |
| CSc1ccc(CN(C)C(=O)c2cc(S(=O)(=O)NCc3ccccc3)ccc2C)cc1 | inconclusive: 29.1 µM [cytotoxic, single point] | – |
| Cc1onc(-c2c(F)cccc2Cl)c1C(=O)OCC(=O)NC(N)=O | inconclusive: 29.1 µM [cytotoxic, single point] | – |
| Cc1ccccc1S(=O)(=O)NC(=O)C1(C)CCN1C(=O)C1(c2ccc(Cl)cc2)CC1 (stereo not drawn) | – | inactive: 19.1% |
| CCc1ccc(CN(C)C(=O)c2cc(S(=O)(=O)N3CCN(CC)CC3)ccc2Cl)cc1 | inconclusive: 29.1 µM [cytotoxic, single point] | – |
| Cc1ccc2nc(C)c3c(c2c1)SCC3 | – | inactive: -29.3% |
| COc1ccccc1N1CCN(Cc2nc(-c3ccc(F)cc3)oc2C)CC1 | – | inactive: 4.08% |
| CC1CCN(C(C(=O)Nc2ccc(C(C)C)cc2)c2ccc3c(c2)OCO3)CC1 (stereo not drawn) | – | inactive: -1.88% |
| O=C(OCc1cn([C@H]2CN(C(=O)C3CCCCC3)[C@@H](c3ccccc3)C[C@@H]2O)nn1)c1ccccc1 | – | inactive: -6.23% |
| CN(C)C(=S)SCCn1c(N)nc(N(C)C)nc1=O | inconclusive: 29.1 µM [rising, single point] | – |
| O=C(Nc1ccccc1SCC1CSc2nc3ccccc3c(=O)n21)c1cccc(Cl)c1 (stereo not drawn) | inconclusive: 23.1 µM [cytotoxic, partial curve] | – |
| COC(=O)C1C(=O)C2=C(CC1C)NC(C)=C(C(=O)OC(C)C)C2c1ccc(OC)c(O)c1 (stereo not drawn) | inconclusive: 29.1 µM [cytotoxic, partial curve, poor fit] | – |
| Cc1nc2cc(OCc3cc(C(=O)NC(C)c4cnn(C)c4)no3)ccc2s1 (stereo not drawn) | active: 10.3 µM | – |
| CCOc1ccccc1NC(=O)c1cc2cc(C)ccc2n1C | active: 8.2 µM | – |
| Clc1ccc(/C=C/c2ncc3ccccn23)cc1 | inconclusive: 18.4 µM [cytotoxic, single point] | – |
| CCOC(=O)c1c(NC(=O)CSc2nc3c(c(=O)n(C)c(=O)n3C)n2CC)sc(C)c1C | active: 9.2 µM | – |
| Cc1ccc(Cn2c(C(C)Nc3nc(C)cs3)nc3cc(Cl)c(Cl)cc32)cc1 (stereo not drawn) | – | inactive: -1.06% |
| Cc1ccc(NC(=S)N2CCN(c3ccccn3)CC2)c(C)c1 | inconclusive: 5.17 µM [rising, full curve, poor fit] | – |
| CCc1ccc(NC(=O)C2CCCN(c3nn4cc(-c5ccc(OC)cc5)nc4s3)C2)cc1 (stereo not drawn) | inconclusive: 3.26 µM [cytotoxic, partial curve, poor fit] | – |
| CCC1Cc2c(nc(N)c3c(N)nc(N4CCOCC4)c(C#N)c23)O1 (stereo not drawn) | inconclusive: 6.51 µM [cytotoxic, partial curve, poor fit] | – |
| Cc1ccc2onc(CNC(=O)Nc3ccccc3C#N)c2c1 | – | inactive: -0.302% |
| O=C(Cc1ccc(Cl)cc1)Nc1ncccn1 | inconclusive: 20.6 µM [rising, single point] | – |
| O=C(NCC(c1ccc2c(c1)OCO2)N1CCN(c2ccc(F)cc2)CC1)c1cccc([N+](=O)[O-])c1 (stereo not drawn) | inconclusive: 11.6 µM [cytotoxic, partial curve, poor fit] | – |

| SMILES | Potency | activity change, negative = cytotoxicity |
| --- | --- | --- |
| COc1ccc(C(=O)NC2CC2)cc1OC1CCN(C/C=C/c2ccccc2)CC1 | active: 16.4 µM | – |
| O=C(N/N=C/c1ccc([N+](=O)[O-])o1)c1cn(-c2ccccc2)nc1-c1ccc(Cl)cc1 | – | inactive: 22.6% |
| CCOC(=O)N1CCN(C(=O)COc2cccc3c2CCN(Cc2cccc(C)c2)C3=O)CC1 | active: 18.4 µM | – |
| CCCc1c(C(=O)N/N=C(/C)c2ccncc2)nnn1-c1nonc1N | inconclusive: 1.64 µM [rising, partial curve] | – |
| CC(=O)c1ccccc1OCC(O)CN1CCN(CCN2C(=O)c3cccc4cccc(c34)C2=O)CC1 (stereo not drawn) | – | inactive: -25.1% |
| CN(c1ccccc1)S(=O)(=O)c1ccc(Cl)c(C(=O)OCC(=O)N2CCOCC2)c1 | inconclusive: 29.1 µM [cytotoxic, single point] | – |
| CSc1nc(C)c(C(=O)Nc2ccccc2)c(-c2ccco2)c1C#N | – | inactive: -15.9% |
| CCOC(=O)C1=C(C)OC(N)=C(C#N)C1c1cncc(-c2ccc(F)cc2)c1 (stereo not drawn) | inconclusive: 20.6 µM [cytotoxic, single point] | – |
| O=C(COC(=O)c1ccccn1)c1ccc([N+](=O)[O-])cc1 | inconclusive: 25.9 µM [rising, single point] | – |
| COc1ccc(C2=Nc3ccccc3OC2)cc1 | inconclusive: 29.1 µM [rising, single point] | – |
| CC(Nc1nc(-c2ccc(F)cc2)cs1)c1nc2cc(Cl)c(N3CCCCC3)cc2n1CCCO (stereo not drawn) | inconclusive: 23.1 µM [cytotoxic, single point] | – |
| CCOc1cc2[nH]c(=S)n(CCc3ccc(OC)c(OC)c3)c(=O)c2cc1OCC | inconclusive: 11.2 µM [cytotoxic, partial curve, poor fit] | – |
| CCc1ccccc1NC(=O)CSc1ncccc1C(=O)O | inconclusive: 29.1 µM [rising, single point] | – |
| CCOc1ccc(NC(=O)CN2CCN(CC(=O)Nc3ccc(F)c(F)c3)CC2)cc1 | inconclusive: 14.6 µM [cytotoxic, partial curve] | – |
| OCC1(Cc2ccccc2)CCN(Cc2cnn(-c3ccccc3F)c2)CC1 | inconclusive: 18.4 µM [cytotoxic, single point] | – |
| Cc1cc(Br)cc2c(C(=O)Nc3c(C)n(C)n(-c4ccccc4)c3=O)cc(-c3cccs3)nc12 | – | inactive: 9.44% |
| Cc1ccc2c(n1)sc1c(N)ncnc12 | inconclusive: 6.51 µM [cytotoxic, full curve] | – |
| c1coc(-c2cc3nc(NCc4ccc5c(c4)OCO5)ccn3n2)c1 | – | inactive: 3.27% |
| COc1cc(OC)cc(C(=O)Nc2ccc(N3CCN(C(=O)c4cccs4)CC3)cc2)c1 | active: 8.2 µM | – |
| CC1(C)Cc2c(cnn2-c2ccc(F)cc2)C(NC(=O)CCC(F)(F)F)C1 (stereo not drawn) | inconclusive: 29.1 µM [cytotoxic, single point] | – |
| COc1ccc(NC(=O)c2ccccc2NC(=O)c2ccco2)c(OC)c1 | inconclusive: 20.6 µM [cytotoxic, single point] | – |
| CC(=O)c1cccc(N(C(=O)c2ccco2)C(C(=O)NC2CCCC2)c2ccncc2)c1 (stereo not drawn) | – | inactive: 0.232% |
| O=C(COc1ccccc1Cl)NC(=O)NC1CCCC1 | inconclusive: 23.1 µM [cytotoxic, single point] | – |

| SMILES | Potency | activity change, negative = cytotoxicity |
| --- | --- | --- |
| CC[C@]1(O)CC2CN(CCc3c([nH]c4ccccc34)[C@@](C(=O)OC)(c3cc4c(cc3OC)N(C)[C@H]3[C@@](O)(C(=O)OC)[C@H](OC(C)=O)[C@]5(CC)C=CCN6CC[C@]43[C@@H]65)C2)C1 (stereo partly drawn) | inconclusive: 2.31 µM [cytotoxic, full curve, poor fit] | – |
| CC/C(=N/NC(=O)c1ccc2c(c1)OCO2)c1ccccc1O | inconclusive: 2.31 µM [cytotoxic, full curve] | – |
| CSc1nc(N2CCOCC2)c2sccc2n1 | – | inactive: -2.5% |
| CCCN1C(=O)/C(=C/c2c(NCCCOCC)nc3c(C)cccn3c2=O)SC1=S | – | inactive: -0.652% |
| CCOc1cc(CN2CCN(C(=O)c3cccc4ccccc34)CC2)ccc1OC | inconclusive: 8.2 µM [cytotoxic, partial curve] | – |
| CCc1nc2ccc(C(=O)NC(C)(C)C)cn2c1N(CC)Cc1cccc(Br)c1 | active: 20.6 µM | – |
| Cc1cnc(CN(C)C(=O)c2ccc3oc(Cc4ccccc4)nc3c2)[nH]1 | inconclusive: 16.4 µM [cytotoxic, partial curve, poor fit] | – |
| Cc1cc(Nc2ccccc2)n(-c2ccccc2)n1 | – | inactive: 1.32% |
| COc1cccc(NC(=O)CSc2nc3c(c(-c4ccco4)c2C#N)CCCC3)c1 | inconclusive: 18.4 µM [cytotoxic, partial curve, poor fit] | – |
| Cc1ccc2c(=O)n3c(nc2c1)C(Cc1ccc(O)cc1)NC(=O)c1cc2ccccc2cc1-3 (stereo not drawn) | inconclusive: 29.1 µM [cytotoxic, single point] | – |
| C[C@@H]1C(c2cccc(Cl)c2)=NN(c2ccc(Br)cc2)[C@H]1C(=O)N1CCOC1=O | – | inactive: 0.0002% |
| CCCCC(=O)N(Cc1nc2sc(C)c(C)c2c(=O)[nH]1)C1CCCC1 | inconclusive: 2.31 µM [cytotoxic, partial curve, poor fit] | – |
| CC1(C(=O)NCc2cccs2)Cc2c(-c3cccc(C(F)(F)F)c3)ccnc2O1 (stereo not drawn) | active: 20.6 µM | – |
| NC(=O)C1CCN(C(=O)NC2CC(=O)N(c3ccc4c(c3)OCCO4)C2)CC1 (stereo not drawn) | – | inactive: 6.67% |
| COc1ccc(CCNc2cc(N3CCN(C(=O)c4ccccc4OC)CC3)ccc2[N+](=O)[O-])cc1OC | inconclusive: 8.2 µM [cytotoxic, single point] | – |
| CCOC(=O)Cc1ccc(NC(=O)n2ncc3cc(Cl)ccc32)cc1 | inconclusive: 2.06 µM [cytotoxic, full curve, poor fit] | – |
| N#CCC(=O)Nc1ccc(C(=O)OCC(=O)N(Cc2ccccc2)C2CCS(=O)(=O)C2)cc1 (stereo not drawn) | inconclusive: 23.1 µM [rising, partial curve, poor fit] | – |
| CCOc1ccc(-c2noc(CCC(=O)NC3CCCCC3)n2)cc1OC | – | inactive: -24.7% |
| COc1cc(/C=C/C(=O)O)ccc1OS(=O)(=O)c1ccc(C)cc1 | – | inactive: 1.35% |
| CC(C)(C)C(=O)Nc1ccc(N2CCN(S(C)(=O)=O)CC2)cc1 | inconclusive: 29.1 µM [rising, single point] | – |
| CNS(=O)(=O)c1ccc(NC(=O)c2cnn3c(C(F)F)cc(-c4ccccc4)nc23)cc1 | inconclusive: 18.4 µM [rising, single point] | – |
| CC(C)CCn1nc(C(=O)OC(C)C(=O)NC(N)=O)c2ccccc2c1=O (stereo not drawn) | inconclusive: 29.1 µM [cytotoxic, single point] | – |

One compound at a time, as listed above:
CCc1nc2ccc(C(=O)NC(C)(C)C)cn2c1N(CC)Cc1cccc(Br)c1 in the list: Potency: active: 20.6 µM
Cc1ccc2c(=O)n3c(nc2c1)C(Cc1ccc(O)cc1)NC(=O)c1cc2ccccc2cc1-3 (stereo not drawn) in the list: Potency: inconclusive: 29.1 µM [cytotoxic, single point]
N#CCC(=O)Nc1ccc(C(=O)OCC(=O)N(Cc2ccccc2)C2CCS(=O)(=O)C2)cc1 (stereo not drawn) in the list: Potency: inconclusive: 23.1 µM [rising, partial curve, poor fit]
